PubChem BioAssay AID1508597 | Cure First | 2020
This is an unselected part of the about 2,100 reagents, under one of the conditions tested. 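Calls flag viability under 80% in either arm, not effects specific to rucaparib; the reference for percent is not stated.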 A reagent listed more than once was tested more than once; the source does not tell the runs apart. No sequences are given here. Not given: the 100% reference.

Screen: 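Genes whose silencing sensitises or protects ovarian cancer cells against rucaparib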 (primary screen)
System: human ovarian carcinoma lines grown from tumours: OCI-P5x (papillary serous) and OCI-C5x (clear cell)
Knock-down reagent: siRNA pool against human genes, 1.25 pmol siRNA per well
Duration: 72 h or 96 h, depending on the cell culture
Challenge: rucaparib 20 µM (about IC30) or vehicle, present until read-out
Rucaparib or vehicle: Vehicle
Cell line: OCI-P5x (serous)
Measurement: 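Luminescent ATP-based viability assay read 72 or 96 h after transfection, depending on culture, given as normalised percent viability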
Reading the numbers: viability, normalised: higher = more viable cells remaining
Rule for the call: 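a well counts as a hit if its normalised viability is under 80 percent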
Calls: active = viability under 80%; inactive = viability 80% or more

The opening 9 records as a preview:
| Target gene | PubChem SID | technical replicate | viability, normalised (%) | Outcome |
| --- | --- | --- | --- | --- |
| AAK1 | SID405527919 | 1 | 66.8 | active |
| AAK1 | SID405527919 | 2 | 70.3 | active |
| AAK1 | SID405527919 | 3 | 58.2 | active |
| BRWD3 | SID405528052 | 1 | 70.1 | active |
| BRWD3 | SID405528052 | 2 | 71.7 | active |
| BRWD3 | SID405528052 | 3 | 73.2 | active |
| LYN | SID405527582 | 1 | 82.8 | inactive |
| LYN | SID405527582 | 2 | 84.9 | inactive |
| LYN | SID405527582 | 3 | 83.5 | inactive |

Main list, repeating the preview:
| Target gene | PubChem SID | technical replicate | viability, normalised (%) | Outcome |
| --- | --- | --- | --- | --- |
| AAK1 | SID405527919 | 1 | 66.8 | active |
| AAK1 | SID405527919 | 2 | 70.3 | active |
| AAK1 | SID405527919 | 3 | 58.2 | active |
| BRWD3 | SID405528052 | 1 | 70.1 | active |
| BRWD3 | SID405528052 | 2 | 71.7 | active |
| BRWD3 | SID405528052 | 3 | 73.2 | active |
| LYN | SID405527582 | 1 | 82.8 | inactive |
| LYN | SID405527582 | 2 | 84.9 | inactive |
| LYN | SID405527582 | 3 | 83.5 | inactive |
| HNRNPM | SID405528257 | 1 | 74.6 | active |
| HNRNPM | SID405528257 | 2 | 71.9 | active |
| HNRNPM | SID405528257 | 3 | 60.2 | active |
| PIK3C2G | SID405527421 | 1 | 85.8 | inactive |
| PIK3C2G | SID405527421 | 2 | 94 | inactive |
| PIK3C2G | SID405527421 | 3 | 106 | inactive |
| NME6 | SID405527082 | 1 | 64.2 | active |
| NME6 | SID405527082 | 1 | 85.5 | inactive |
| NME6 | SID405527082 | 2 | 49 | active |
| NME6 | SID405527082 | 2 | 58.2 | active |
| NME6 | SID405527082 | 3 | 74.1 | active |
| NME6 | SID405527082 | 3 | 65.5 | active |
| DNM3 | SID405528233 | 1 | 68.3 | active |
| DNM3 | SID405528233 | 2 | 53.3 | active |
| DNM3 | SID405528233 | 3 | 73.8 | active |
| BCL2L1 | SID405528024 | 1 | 72.9 | active |
| BCL2L1 | SID405528024 | 1 | 72.2 | active |
| BCL2L1 | SID405528024 | 2 | 59.7 | active |
| BCL2L1 | SID405528024 | 2 | 67.8 | active |
| BCL2L1 | SID405528024 | 3 | 56.3 | active |
| BCL2L1 | SID405528024 | 3 | 71.1 | active |
| ARID1B | SID405527974 | 1 | 71.9 | active |
| ARID1B | SID405527974 | 2 | 71.2 | active |
| ARID1B | SID405527974 | 3 | 70.3 | active |
| RPS6KA3 | SID405527497 | 1 | 89.6 | inactive |
| RPS6KA3 | SID405527497 | 2 | 98.7 | inactive |
| RPS6KA3 | SID405527497 | 3 | 112 | inactive |
| BOK | SID405526362 | 1 | 70.7 | active |
| BOK | SID405526362 | 2 | 83.5 | inactive |
| BOK | SID405526362 | 3 | 82.9 | inactive |
| TIE1 | SID405526356 | 1 | 86.6 | inactive |
| TIE1 | SID405526356 | 1 | 62.2 | active |
| TIE1 | SID405526356 | 2 | 77.3 | active |
| TIE1 | SID405526356 | 2 | 63.6 | active |
| TIE1 | SID405526356 | 3 | 81.4 | inactive |
| TIE1 | SID405526356 | 3 | 106 | inactive |
| CDK4 | SID405527485 | 1 | 94.2 | inactive |
| CDK4 | SID405527485 | 2 | 83.4 | inactive |
| CDK4 | SID405527485 | 3 | 85.3 | inactive |
| SMC1A | SID405527338 | 1 | 44.2 | active |
| SMC1A | SID405527338 | 1 | 133 | inactive |
| SMC1A | SID405527338 | 2 | 53.6 | active |
| SMC1A | SID405527338 | 2 | 109 | inactive |
| SMC1A | SID405527338 | 3 | 60.3 | active |
| SMC1A | SID405527338 | 3 | 130 | inactive |
| PLCD1 | SID405526709 | 1 | 70.7 | active |
| PLCD1 | SID405526709 | 2 | 80 | inactive |
| PLCD1 | SID405526709 | 3 | 66.7 | active |
| CUL3 | SID405528156 | 1 | 81.6 | inactive |
| CUL3 | SID405528156 | 2 | 99.7 | inactive |
| CUL3 | SID405528156 | 3 | 84.8 | inactive |
| KDM1A | SID405526927 | 1 | 61.6 | active |
| KDM1A | SID405526927 | 2 | 66.8 | active |
| KDM1A | SID405526927 | 3 | 72.6 | active |
| TET2 | SID405526554 | 1 | 58.2 | active |
| TET2 | SID405526554 | 2 | 61 | active |
| TET2 | SID405526554 | 3 | 85 | inactive |
| PKM | SID405527403 | 1 | 98.6 | inactive |
| PKM | SID405527403 | 2 | 91.5 | inactive |
| PKM | SID405527403 | 3 | 100 | inactive |
| PADI4 | SID405527101 | 1 | 60.1 | active |
| PADI4 | SID405527101 | 2 | 60.3 | active |
| PADI4 | SID405527101 | 3 | 69 | active |
| BRD7P3 | SID405528043 | 1 | 82.2 | inactive |
| BRD7P3 | SID405528043 | 2 | 93.4 | inactive |
| BRD7P3 | SID405528043 | 3 | 79.6 | active |
